Data on 18 compounds can be found in PubChem BioAssay AID493014 (National Center for Advancing Translational Sciences (NCATS), 2011).

This experiment can be described thus: qHTS Assay to Find Inhibitors of Chronic Active B-Cell Receptor Signaling. Particulars: ABC-DLBCL IkBa-CBG/CBR reporter, luminescence ratio (green luciferase fused to IkBa over red control in TMD8 lymphoma cells), 4 h. The method, boiled down:
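TMD8 human ABC-DLBCL cells with doxycycline-inducible IκBα–green luciferase fusion and unfused red luciferase, in 0.5% FBS medium; compounds up to 46 uM, 4 h at 37C. Green/red luminescence ratio, filter-overlap corrected, fitted to concentration-response curves.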

Setting [1] is: measured here: CBR red luminescence, cell number.

The list shows a part of the results. The main result of the screen is listed elsewhere. These columns were measured beside it and carry no call. The list favours compounds with an active or inconclusive main result. Potencies come from curve fits of mixed quality, noted in brackets.

Consider `O=C(Cn1cccc1)N1CCN(C(c2ccccc2)c2ccccc2)CC1`, for which the AC50 under setting [1] was 11.6 µM [rising, partial curve].

In the case of `Cc1ccsc1/C=N/NC(=O)c1nnn(-c2nonc2N)c1-c1ccc2c(c1)OCO2`, the AC50 under setting [1] was 10 µM [falling, partial curve].

Regarding `Oc1ccc(O)c2c1C1c3ccccc3C2c2ccccc21`, the AC50 under setting [1] was 35.5 µM [rising, single point]. As to `COc1ccc(Nc2cc(C(=O)NCCCN(C)c3ccccc3)c3ccccc3n2)c(OC)c1`, the concentration at half-maximal activity (AC50) under setting [1] was 35.5 µM [falling, single point]. As for `N#C/C(=C/c1ccc(N2CCCCC2)o1)C(=O)Nc1ccc(Cl)cc1`, under setting [1], the AC50 is 6.51 µM [falling, full curve, poor fit]. Same read-out and setting: in the case of `CC1CCCC(NC(=O)Cn2cc(C(F)(F)F)cc(Cl)c2=O)C1C` (centres undefined) it was 0.164 µM [falling, full curve, poor fit]. As to `Cc1cccc(NC(=O)c2cc(S(=O)(=O)N3CCCCC3)ccc2Cl)n1`, the half-maximal activity concentration (AC50) under setting [1] was 11.6 µM [rising, partial curve, poor fit]. Still for that read-out and setting: in the case of `O=C(CNc1ccc2c(c1)OCO2)N/N=C\c1cn(Cc2ccc(F)cc2)c2ccccc12` it was 6.51 µM [falling, full curve]; in that of `COc1ccc([N+](=O)[O-])cc1NCc1ccco1`, 10 µM [rising, partial curve, poor fit]; in that of `Cc1ccc(CS(=O)(=O)c2ccc(C(=O)N3CCCCC3)cc2[N+](=O)[O-])cc1`, 10 µM [falling, partial curve, poor fit]. Same read-out and setting: in the case of `O=C(c1ccc(-c2ccc([N+](=O)[O-])cc2)o1)N1CCCCC1` it was 1.46 µM [rising, full curve, poor fit].

Turning to `CCOCCCNC(=O)c1cc(Sc2nnc(C)s2)nc2ccccc12`, the AC50 under setting [1] was 35.5 µM [rising, single point]. Regarding `Cn1cc(SCC(=O)NCCc2ccccc2)c2ccccc21`, the concentration at half-maximal activity (AC50) under setting [1] was 1.41 µM [rising, partial curve].

As to `CC1(C)Cc2c(c(-c3ccccc3)[nH]c(=O)c2C#N)CS1`, under setting [1], the AC50 is 0.411 µM [falling, partial curve, poor fit]. On to `CCc1c(C#N)c(SCCC(=O)Nc2ccc(F)cc2)nc2c1C(=O)CC(C)(C)C2`, for which, under setting [1], the concentration at half-maximal activity (AC50) was 32.6 µM [falling, single point].

In the case of `COc1ccc(CNC(=O)C(c2ccco2)N(C(=O)CNS(=O)(=O)c2ccccc2)c2ccccc2C)cc1` (centres undefined), under setting [1], the AC50 is 20.6 µM [falling, single point]. Same read-out and setting: with `COc1cc(C2NC(C(=O)O)CS2)ccc1OCc1ccccc1C#N` (centres undefined) the figure was 18.4 µM [falling, single point].

As to `COc1ccc(C(=O)Nc2ccc(/C(C)=N/NC(=O)c3ccccc3O)cc2)cc1OC`, the concentration at half-maximal activity (AC50) under setting [1] is 10.3 µM [falling, partial curve] and the half-maximal activity concentration (AC50) (measured here: IkBa-CBG green luminescence) was 32.6 µM [falling, partial curve, poor fit].
